No constants are given. Whether binding was seen depends on the method and setting. Sequences can lack the tags named with a protein.
Target: MBP-SUFU-FL (human) (UniProt Q9UMX1)
Assay: SEC; HiPrep 26/60 Sephacryl S-200 HR; 10 mM Tris–HCl pH 7.4, 50 mM NaCl, 1 mM DTT; both purified

binding: no binding
B1: MBP-SUFU-FL (domain or fragment, UniProt Q9UMX1 32-483)
chain: PGLHAIYGECRRLYPDQPNPLQVTAIVKYWLGGPDPLDYVSMYRNVGSPSANIPEHWHYISFGLSDLYGDNRVHEFTGTDGPSGFGFELTFRLKRETGESAPPTWPAELMQGLARYVFQSENTFCSGDHVSWHSPLDNSESRIQHMLLTEDPQMQPVQTPFGVVTFLQIVGVCTEELHSAQQWNGQGILELLRTVPIAGGPWLITDMRRGETIFEIDPHLQERVDKGIETDGSNLSGVSAKCAWDDLSRPPEDDEDSRSICIGTQPRRLSGKDTEQIRETLRRGLEINSKPVLPPINPQRQNGLAHDRAPSRKDSLESDSSTAIIPHELIRTRQLESVHLKFNQESGALIPLCLRGRLLHGRHFTYKSITGDMAITFVSTGVEGAFATEEHPYAAHGPWLQILLTEEFVEKMLEDLEDLTSPEEFKLPKEYSWPEKKLKVSILPDVVFDSPL

From publication PMC3852661, “Structural basis of SUFU–GLI interaction in human Hedgehog signalling regulation” (Acta Crystallographica Section D: Biological Crystallography, 2013)
